Experimental findings from the supplement of paper PMC6143611 are described below.

Counter-ions that a name gives are not always drawn. ± gives the uncertainty stated by the source. This is one part of the list. Plates or batches differ in their baseline, so values are only roughly comparable.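 Larvae carried a heat-shock-induced fluorescent stripe in rod outer segments, set at 6 dpf; the shedding distance runs from this stripe to the outer segment tip, measured in confocal stacks, about three fish per compound. The controls got 0.2% DMSO vehicle, and the paper flagged compounds with at least a 20% change against the same-week control and p < 0.001 (Dunnett test on mixed-effects models).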

Test [1] has as its system Danio rerio larva rod photoreceptor outer segment. As to the kind of experiment: rod outer segment growth distance Dg, difference from same-week DMSO control mean; higher = more outer segment growth. Particulars: 20 µM; treatment time: 4 days (6-10 dpf).
Test [2] shares this test system. Nature of the test: rod outer segment shedding distance Ds, difference from same-week DMSO control mean; higher = less outer segment shedding. Particulars: 20 µM; treatment time: 4 days (6-10 dpf).

On to `O=C(NC1CCNCC1)c1n[nH]cc1NC(=O)c1c(Cl)cccc1Cl`, for which the “rod outer segment growth distance Dg” value in test [1] was -1.66 ± 0.18 um. The “rod outer segment shedding distance Ds” value in test [2] is 1.39 ± 0.15 um.
Taken in the same sequence, the figures for `CN(C)C1CCN(C(=O)c2ccc(NC(=O)Nc3ccc(-c4nc(N5CCOCC5)nc(N5CCOCC5)n4)cc3)cc2)CC1` were -1.02 ± 0.19 um and -0.02 ± 0.1 um.
As for `COC(=O)[C@H](Cc1ccccc1)NC(=O)[C@@H](N)CC(=O)O` [Aspartame], the “rod outer segment growth distance Dg” value in test [1] was determined as 1.25 ± 0.31 um. Besides, in test [2], the “rod outer segment shedding distance Ds” value was -0.19 ± 0.3 um.
Take `Cc1ccc(-n2nc(C(C)(C)C)cc2NC(=O)Nc2ccc(OCCN3CCOCC3)c3ccccc23)cc1` [BIRB 796 (Doramapimod)]: the “rod outer segment growth distance Dg” value in test [1] was -2.53 ± 0.44 um. Further, in test [2], the “rod outer segment shedding distance Ds” value is -1.09 ± 0.34 um.
The corresponding values for `CCOC(=O)c1ccc(OC(=O)CCCCCNC(=N)N)cc1` [Gabexate Mesylate] are 0.77 ± 0.2 um and -1.3 ± 0.22 um.
Taken in the same sequence, the figures for `CC1(C)O[C@@H]2C[C@H]3[C@@H]4C[C@H](F)C5=CC(=O)C=C[C@]5(C)[C@@]4(F)[C@@H](O)C[C@]3(C)[C@]2(C(=O)CO)O1` [Fluocinolone Acetonide] were 0 ± 0.3 um and -0.14 ± 0.32 um.
For the compound `OCCn1cc(-c2ccc3c(c2)CC/C3=N\O)c(-c2ccncc2)n1`, the “rod outer segment growth distance Dg” value in test [1] is -0.99 ± 0.16 um. The “rod outer segment shedding distance Ds” value in test [2] is -1.31 ± 0.22 um.
The corresponding values for `CC(=O)O[C@H]1C(=O)[C@@]2(C)[C@H]([C@H](OC(=O)c3ccccc3)[C@]3(O)C[C@H](OC(=O)[C@H](O)[C@@H](NC(=O)c4ccccc4)c4ccccc4)C(C)=C1C3(C)C)[C@]1(OC(C)=O)CO[C@@H]1C[C@@H]2O` [Paclitaxel] are 0.22 ± 0.29 um and 0.2 ± 0.23 um.
`COc1ccc(C(C)=O)c(O)c1` [Paeonol]: in test [1], the “rod outer segment growth distance Dg” value is -0.15 ± 1.5 um. In addition, the “rod outer segment shedding distance Ds” value in test [2] is -4.38 ± 1.6 um.
Regarding `Cc1[nH]c(/C=C2\C(=O)Nc3ccccc32)c(C)c1CCC(=O)O` [TSU-68 (SU6668, Orantinib)], the “rod outer segment growth distance Dg” value in test [1] is -0.96 ± 0.18 um. In addition, in test [2], the “rod outer segment shedding distance Ds” value is 0.07 ± 0.17 um.
The corresponding values for `CC1=CC(=O)NS(=O)(=O)O1` [Acesulfame Potassium] are 1.04 ± 0.2 um and -0.04 ± 0.11 um.
Consider `O=C(O)Cn1nnc(-c2cc(N3CCC(Oc4cc(F)ccc4Br)CC3)no2)n1`, for which the “rod outer segment growth distance Dg” value in test [1] stood at 0.03 ± 0.3 um. The “rod outer segment shedding distance Ds” value in test [2] was -0.34 ± 0.21 um.
`Cc1ccc(S(=O)(=O)n2c(N)nc3ccccc32)cc1` [ML130 (Nodinitib-1)]: the “rod outer segment growth distance Dg” value in test [1] was -1.57 ± 0.26 um. Besides, the “rod outer segment shedding distance Ds” value in test [2] was -0.83 ± 0.17 um.
For `CCC1(c2ccccc2)C(=O)NCNC1=O` [Primidone], the “rod outer segment growth distance Dg” value in test [1] is 0.5 ± 0.3 um. In test [2], the “rod outer segment shedding distance Ds” value stood at 1.06 ± 0.26 um.
As to `CC(C)c1nc(N(C)S(C)(=O)=O)nc(-c2ccc(F)cc2)c1/C=C/[C@@H](O)C[C@@H](O)CC(=O)O` [Rosuvastatin Calcium], in test [1], the “rod outer segment growth distance Dg” value was -0.27 ± 0.29 um. The “rod outer segment shedding distance Ds” value in test [2] was 0.1 ± 0.27 um.
As for `Nc1nc(Cl)nc2c1ncn2[C@H]1C[C@H](O)[C@@H](CO)O1` [Cladribine], the “rod outer segment growth distance Dg” value in test [1] turned out to be 0.81 ± 0.17 um. Also, the “rod outer segment shedding distance Ds” value in test [2] was -2 ± 0.23 um.
With `N#CC1(c2ccc(NC(=O)c3cccnc3NCc3ccncc3)cc2)CCCC1` [Apatinib], in test [1], the “rod outer segment growth distance Dg” value is -0.48 ± 0.17 um. The “rod outer segment shedding distance Ds” value in test [2] was 0.44 ± 0.24 um.
Turning to `C#C[C@]1(O)CC[C@H]2[C@@H]3CCC4=CC(=O)CC[C@@H]4[C@H]3CC[C@@]21CC` [Levonorgestrel], the “rod outer segment growth distance Dg” value in test [1] is -0.69 ± 0.28 um. In test [2], the “rod outer segment shedding distance Ds” value is 0.35 ± 0.17 um.
Consider `N=c1ccn2c(n1)O[C@H]1[C@H](O)[C@@H](CO)O[C@H]12` [Cyclocytidine HCl], for which the “rod outer segment growth distance Dg” value in test [1] is 0.19 ± 0.42 um. The “rod outer segment shedding distance Ds” value in test [2] worked out at 0.1 ± 0.3 um.
In the case of `C[C@@](Cc1ccc(O)c(O)c1)(NN)C(=O)O` [Carbidopa], in test [1], the “rod outer segment growth distance Dg” value was 0.5 ± 0.23 um. Moreover, in test [2], the “rod outer segment shedding distance Ds” value is 0.28 ± 0.29 um.
In the case of `Cc1cc(Nc2cc(N3CCN(C)CC3)nc(Sc3ccc(NC(=O)C4CC4)cc3)n2)n[nH]1` [VX-680 (Tozasertib, MK-0457)], in test [1], the “rod outer segment growth distance Dg” value is -0.42 ± 0.086 um. The “rod outer segment shedding distance Ds” value in test [2] is -0.98 ± 0.2 um.
As to `O=C(CCc1ccc(O)cc1)c1c(O)cc(O)cc1O` [Phloretin], the “rod outer segment growth distance Dg” value in test [1] is -2.94 ± 1 um. Also, the “rod outer segment shedding distance Ds” value in test [2] is -3.01 ± 1.1 um.
For the compound `CO[C@H]1/C=C/O[C@@]2(C)Oc3c(C)c(O)c4c(O)c(c(/C=N/N5CCN(C6CCCC6)CC5)c(O)c4c3C2=O)NC(=O)/C(C)=C\C=C\[C@H](C)[C@H](O)[C@@H](C)[C@@H](O)[C@@H](C)[C@H](OC(C)=O)[C@@H]1C` [Rifapentine], in test [1], the “rod outer segment growth distance Dg” value is -0.33 ± 0.2 um. In test [2], the “rod outer segment shedding distance Ds” value was -0.53 ± 0.16 um.
Turning to `COc1ccccc1OCC(O)CN1CCN(CC(=O)Nc2c(C)cccc2C)CC1` (configuration not stated) [Ranolazine 2HCl], the “rod outer segment growth distance Dg” value in test [1] came to 0.74 ± 0.16 um. The “rod outer segment shedding distance Ds” value in test [2] was -0.06 ± 0.19 um.
On to `Cc1nc(NC(=O)N2CCC[C@H]2C(N)=O)sc1-c1csc(C(C)(C)C)n1`, for which the “rod outer segment growth distance Dg” value in test [1] is -0.21 ± 0.2 um. In test [2], the “rod outer segment shedding distance Ds” value is -0.68 ± 0.13 um.
As to `CCC(C)(Oc1ccc(C2(c3ccc(OC(C)(CC)C(=O)O)cc3)CCCCC2)cc1)C(=O)O` (configuration not stated) [Clinofibrate], the “rod outer segment growth distance Dg” value in test [1] was -0.89 ± 0.22 um. The “rod outer segment shedding distance Ds” value in test [2] was -0.48 ± 0.13 um.
With `CC1(C)S[C@@H]2[C@H](NC(=O)[C@H](N)c3ccc(O)cc3)C(=O)N2[C@H]1C(=O)O` [Amoxicillin], the “rod outer segment growth distance Dg” value in test [1] was -0.47 ± 0.21 um. In addition, in test [2], the “rod outer segment shedding distance Ds” value was -0.12 ± 0.15 um.
For the compound `CC(C)[C@H]1CC[C@H](C(=O)N[C@H](Cc2ccccc2)C(=O)O)CC1` [Nateglinide], in test [1], the “rod outer segment growth distance Dg” value is 0.69 ± 0.31 um. In test [2], the “rod outer segment shedding distance Ds” value was found to be 0.12 ± 0.42 um.
Turning to `O=C(O)c1ccc(-n2nc(-c3ccccc3O)nc2-c2ccccc2O)cc1` [Deferasirox], the “rod outer segment growth distance Dg” value in test [1] was determined as 0.32 ± 0.29 um. Besides, the “rod outer segment shedding distance Ds” value in test [2] came to 0.34 ± 0.14 um.
Regarding `CNC(=C[N+](=O)[O-])NCCSCc1ccc(CN(C)C)o1` [Ranitidine], the “rod outer segment growth distance Dg” value in test [1] is -0.02 ± 0.21 um. Besides, the “rod outer segment shedding distance Ds” value in test [2] is -0.02 ± 0.14 um.
`CC[C@]1(O)C[C@H]2CN(CCc3c([nH]c4ccccc34)[C@@](C(=O)OC)(c3cc4c(cc3OC)N(C=O)[C@H]3[C@@](O)(C(=O)OC)[C@H](OC(C)=O)[C@]5(CC)C=CCN6CC[C@]43[C@@H]65)C2)C1` [Vincristine]: the “rod outer segment growth distance Dg” value in test [1] was -0.55 ± 0.21 um. In test [2], the “rod outer segment shedding distance Ds” value was -0.45 ± 0.24 um.
